In patent US10793514B2, “Glutamine transport inhibitors and methods for treating cancer” (Vanderbilt University, priority 2016, dated 2020):

How the values were obtained:
[1] = Plasma glucose and glutamine analysis; assay type: in vivo, mouse; conditions: vs vehicle
[2] = system: HCC1806 cell line xenograft; test: [18F]-4F-glutamine PET imaging; assay type: in vivo, mouse; conditions: single dose 75 mg/kg, 4 h
Description: Animal handling methods for PET imaging studies were conducted as reported^5,42 Prior to imaging, animals were allowed to acclimate to facility environment for at least 1 h in a warmed chamber at 31.5° C. Animals were administered 10.4-11.8 MBq 4-[^18F]fluoroglutamine via intravenous injection and imaged using a Concorde Microsystems Focus 220 microPET scanner (Siemens Preclinical Solutions). During imaging, animals were maintained under 2% isoflurane anesthesia in oxygen at 2 L/min and kept warm for the duration of the PET scan. PET images in xenograft-bearing mice were acquired as 60-minute dynamic data sets. […] PET data were reconstructed using a three-dimensional (3D) ordered subset expectation maximization/maximum a posteriori (OSEM3D/MAP) algorithm. […] ASIPro software (Siemens Preclinical Solutions) was used to manually draw 3D regions of interest (ROIs) surrounding the entire tumor volume. 4-[^18F]fluoroglutamine uptake was quantified as the percentage of the injected dose per gram of tissue (% ID/g). Significance was calculated using a t-test in Graphpad Prism. Error is reported as standard deviation (SD).
For in vivo studies, cell-line xenograft tumors were propagated in 6-week old, female athymic nude mice from immortalized cell lines. […] Tumor volumes were measured manually using calipers every third day and quantified using the formula V=W·L·(H/2).

## Cc1cccc(COc2ccccc2CN(CCC(N)C(=O)O)Cc2ccccc2OCc2cccc(C)c2)c1 (stereo not drawn) [Compound V-9302]
[1]; 75 mg/kg daily, 21-day regimen
  plasma glucose levels, chronic exposure: not significantly different
  plasma glutamine levels, chronic exposure: slightly decreased
[1]; single dose 75 mg/kg, 4 h
  elevation of plasma glutamine levels, acute exposure: approximately 50%
  plasma glucose levels, acute exposure: not significantly different
[2]
  [18F]-4F-glutamine uptake in muscle: unaffected
[2]; p=0.05
  [18F]-4F-glutamine uptake in liver: modestly elevated
